Experimental data from PMC11428915.

Chains of the proteins cited; added tags and fusions are not shown.
UniProt O60637: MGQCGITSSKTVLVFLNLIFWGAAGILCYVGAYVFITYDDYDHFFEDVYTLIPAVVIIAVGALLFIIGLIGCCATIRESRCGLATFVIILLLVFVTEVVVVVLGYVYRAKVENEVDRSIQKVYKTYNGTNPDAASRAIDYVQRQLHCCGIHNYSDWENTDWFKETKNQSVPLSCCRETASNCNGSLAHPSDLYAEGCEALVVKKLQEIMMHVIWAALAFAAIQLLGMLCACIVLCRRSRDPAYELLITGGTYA
UniProt P62491: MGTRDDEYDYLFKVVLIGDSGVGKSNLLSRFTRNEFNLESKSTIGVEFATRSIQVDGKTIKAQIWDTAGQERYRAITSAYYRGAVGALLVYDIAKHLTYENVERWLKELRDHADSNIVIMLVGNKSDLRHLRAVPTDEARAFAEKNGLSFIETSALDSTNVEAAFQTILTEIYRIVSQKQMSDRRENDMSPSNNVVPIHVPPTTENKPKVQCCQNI

Target: TSPAN3 as used for the mass spectrometric analysis (construct not stated) (UniProt O60637)
Experiment: affinity purification with mass spectrometry; coimmunoprecipitation and mass spectrometric assay, performed as previously described (ref. 22); bait construct and cells not told

## Ras-related protein Rab-11a, endogenous in A549 cells (from UniProt P62491 1-216)
  binding: binds

These are yes or no findings as the source states them, for the method shown. In cells and extracts the contact can be indirect. Here binding means that the protein was enriched with, or labelled near, the bait; the list need not be complete.
